Experimental findings from the supplement of paper PMC12067093, “Discovery and optimisation of a covalent ligand for TRIM25 and its application to targeted protein ubiquitination” (Chemical Science, 2025) are described below.

Sequences of proteins named here, by UniProt entry; tags and fusion partners are left off. A change or cut given only in a name is not applied to a line headed by its entry.
UniProt P05107, whole entry, looked up: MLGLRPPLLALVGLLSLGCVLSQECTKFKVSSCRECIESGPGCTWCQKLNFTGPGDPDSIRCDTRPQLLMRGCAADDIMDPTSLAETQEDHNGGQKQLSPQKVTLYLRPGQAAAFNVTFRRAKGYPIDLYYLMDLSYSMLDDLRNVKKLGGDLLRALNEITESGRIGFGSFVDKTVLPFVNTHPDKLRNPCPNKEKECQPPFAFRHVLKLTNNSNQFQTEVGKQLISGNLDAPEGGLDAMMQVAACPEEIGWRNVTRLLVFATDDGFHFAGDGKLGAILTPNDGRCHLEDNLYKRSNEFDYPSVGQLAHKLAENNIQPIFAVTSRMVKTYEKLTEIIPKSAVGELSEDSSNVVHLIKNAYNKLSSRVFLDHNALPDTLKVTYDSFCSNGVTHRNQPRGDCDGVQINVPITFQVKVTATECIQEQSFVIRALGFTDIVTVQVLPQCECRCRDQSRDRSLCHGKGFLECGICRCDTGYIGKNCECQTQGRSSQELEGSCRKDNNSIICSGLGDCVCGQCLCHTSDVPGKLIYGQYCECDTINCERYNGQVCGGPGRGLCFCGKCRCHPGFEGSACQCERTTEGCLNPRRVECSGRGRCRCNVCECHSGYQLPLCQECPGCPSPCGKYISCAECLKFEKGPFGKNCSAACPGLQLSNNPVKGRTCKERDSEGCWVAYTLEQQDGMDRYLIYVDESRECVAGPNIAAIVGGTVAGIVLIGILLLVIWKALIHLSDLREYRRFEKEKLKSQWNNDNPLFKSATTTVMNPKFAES
UniProt Q96A47: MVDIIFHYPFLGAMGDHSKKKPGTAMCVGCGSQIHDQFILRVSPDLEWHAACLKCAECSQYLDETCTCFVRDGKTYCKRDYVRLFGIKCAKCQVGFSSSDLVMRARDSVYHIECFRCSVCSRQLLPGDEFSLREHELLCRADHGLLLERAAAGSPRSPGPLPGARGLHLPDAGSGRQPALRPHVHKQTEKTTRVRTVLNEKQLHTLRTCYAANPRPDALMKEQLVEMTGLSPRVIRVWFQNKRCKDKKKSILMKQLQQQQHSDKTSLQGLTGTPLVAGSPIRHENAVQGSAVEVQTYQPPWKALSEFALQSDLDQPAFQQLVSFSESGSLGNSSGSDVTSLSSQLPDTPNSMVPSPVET
UniProt Q8TEX9: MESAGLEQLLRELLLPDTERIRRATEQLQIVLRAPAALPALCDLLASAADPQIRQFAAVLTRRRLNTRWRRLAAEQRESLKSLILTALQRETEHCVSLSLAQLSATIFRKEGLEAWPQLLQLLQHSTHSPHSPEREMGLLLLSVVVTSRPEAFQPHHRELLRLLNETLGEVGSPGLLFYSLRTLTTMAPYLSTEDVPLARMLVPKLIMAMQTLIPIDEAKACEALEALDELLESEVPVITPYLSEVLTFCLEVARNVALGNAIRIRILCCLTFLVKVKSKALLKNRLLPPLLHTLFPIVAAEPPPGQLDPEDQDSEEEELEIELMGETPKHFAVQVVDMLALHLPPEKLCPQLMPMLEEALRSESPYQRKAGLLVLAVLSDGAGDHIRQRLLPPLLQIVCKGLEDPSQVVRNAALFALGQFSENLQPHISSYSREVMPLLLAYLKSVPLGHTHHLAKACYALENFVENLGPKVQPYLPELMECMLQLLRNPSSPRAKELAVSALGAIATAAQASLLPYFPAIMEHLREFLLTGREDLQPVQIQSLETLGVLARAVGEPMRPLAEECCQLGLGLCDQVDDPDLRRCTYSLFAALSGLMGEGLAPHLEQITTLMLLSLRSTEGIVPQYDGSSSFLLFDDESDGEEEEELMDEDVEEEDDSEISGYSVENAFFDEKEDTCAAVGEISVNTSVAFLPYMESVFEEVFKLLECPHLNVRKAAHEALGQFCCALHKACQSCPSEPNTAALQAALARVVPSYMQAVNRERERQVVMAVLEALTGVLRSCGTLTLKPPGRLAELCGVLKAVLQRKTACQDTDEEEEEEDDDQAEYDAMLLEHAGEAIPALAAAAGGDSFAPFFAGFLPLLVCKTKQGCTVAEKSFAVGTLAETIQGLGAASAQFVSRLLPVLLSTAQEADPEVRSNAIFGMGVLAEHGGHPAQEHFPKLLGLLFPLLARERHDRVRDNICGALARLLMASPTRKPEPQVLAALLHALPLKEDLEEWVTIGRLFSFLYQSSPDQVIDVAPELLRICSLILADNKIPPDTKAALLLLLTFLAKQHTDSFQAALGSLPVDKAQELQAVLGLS
UniProt Q7Z5L9: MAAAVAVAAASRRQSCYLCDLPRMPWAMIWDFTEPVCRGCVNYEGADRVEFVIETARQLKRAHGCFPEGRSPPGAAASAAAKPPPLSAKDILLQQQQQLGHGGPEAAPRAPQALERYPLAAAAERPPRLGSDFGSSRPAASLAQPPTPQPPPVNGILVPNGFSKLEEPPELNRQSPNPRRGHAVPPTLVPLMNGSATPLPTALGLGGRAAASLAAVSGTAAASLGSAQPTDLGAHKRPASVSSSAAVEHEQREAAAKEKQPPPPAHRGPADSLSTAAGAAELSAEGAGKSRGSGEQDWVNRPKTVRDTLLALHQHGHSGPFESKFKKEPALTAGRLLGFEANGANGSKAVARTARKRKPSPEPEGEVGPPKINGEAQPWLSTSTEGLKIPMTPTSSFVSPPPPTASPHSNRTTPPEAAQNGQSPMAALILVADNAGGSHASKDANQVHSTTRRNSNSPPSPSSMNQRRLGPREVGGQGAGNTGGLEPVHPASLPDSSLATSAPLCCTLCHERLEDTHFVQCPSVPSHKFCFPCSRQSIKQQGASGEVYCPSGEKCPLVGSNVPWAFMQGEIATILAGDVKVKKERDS
UniProt Q9UL03, whole entry, looked up: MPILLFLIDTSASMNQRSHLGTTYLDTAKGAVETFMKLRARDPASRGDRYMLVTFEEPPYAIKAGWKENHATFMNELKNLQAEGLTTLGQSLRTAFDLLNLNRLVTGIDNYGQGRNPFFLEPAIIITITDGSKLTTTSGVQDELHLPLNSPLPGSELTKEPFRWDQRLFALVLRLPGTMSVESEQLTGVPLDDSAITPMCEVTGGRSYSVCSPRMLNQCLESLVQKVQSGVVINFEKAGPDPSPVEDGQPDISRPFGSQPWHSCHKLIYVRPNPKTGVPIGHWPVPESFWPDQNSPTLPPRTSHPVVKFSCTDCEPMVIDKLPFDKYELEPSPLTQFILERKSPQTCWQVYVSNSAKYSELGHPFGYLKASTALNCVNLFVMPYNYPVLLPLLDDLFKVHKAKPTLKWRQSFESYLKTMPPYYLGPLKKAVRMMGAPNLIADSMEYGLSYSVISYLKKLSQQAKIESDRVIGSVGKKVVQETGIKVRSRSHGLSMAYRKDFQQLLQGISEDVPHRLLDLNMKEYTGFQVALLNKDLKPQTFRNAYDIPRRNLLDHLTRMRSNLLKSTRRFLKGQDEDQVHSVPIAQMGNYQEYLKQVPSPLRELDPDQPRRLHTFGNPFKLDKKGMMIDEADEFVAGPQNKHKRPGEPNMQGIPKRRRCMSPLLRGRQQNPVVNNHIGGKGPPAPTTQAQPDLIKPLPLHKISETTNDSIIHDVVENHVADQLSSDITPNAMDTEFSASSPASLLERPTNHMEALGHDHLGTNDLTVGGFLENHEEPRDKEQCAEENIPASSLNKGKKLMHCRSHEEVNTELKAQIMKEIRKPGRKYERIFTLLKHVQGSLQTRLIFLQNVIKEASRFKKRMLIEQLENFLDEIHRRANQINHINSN
UniProt Q9Y2H2: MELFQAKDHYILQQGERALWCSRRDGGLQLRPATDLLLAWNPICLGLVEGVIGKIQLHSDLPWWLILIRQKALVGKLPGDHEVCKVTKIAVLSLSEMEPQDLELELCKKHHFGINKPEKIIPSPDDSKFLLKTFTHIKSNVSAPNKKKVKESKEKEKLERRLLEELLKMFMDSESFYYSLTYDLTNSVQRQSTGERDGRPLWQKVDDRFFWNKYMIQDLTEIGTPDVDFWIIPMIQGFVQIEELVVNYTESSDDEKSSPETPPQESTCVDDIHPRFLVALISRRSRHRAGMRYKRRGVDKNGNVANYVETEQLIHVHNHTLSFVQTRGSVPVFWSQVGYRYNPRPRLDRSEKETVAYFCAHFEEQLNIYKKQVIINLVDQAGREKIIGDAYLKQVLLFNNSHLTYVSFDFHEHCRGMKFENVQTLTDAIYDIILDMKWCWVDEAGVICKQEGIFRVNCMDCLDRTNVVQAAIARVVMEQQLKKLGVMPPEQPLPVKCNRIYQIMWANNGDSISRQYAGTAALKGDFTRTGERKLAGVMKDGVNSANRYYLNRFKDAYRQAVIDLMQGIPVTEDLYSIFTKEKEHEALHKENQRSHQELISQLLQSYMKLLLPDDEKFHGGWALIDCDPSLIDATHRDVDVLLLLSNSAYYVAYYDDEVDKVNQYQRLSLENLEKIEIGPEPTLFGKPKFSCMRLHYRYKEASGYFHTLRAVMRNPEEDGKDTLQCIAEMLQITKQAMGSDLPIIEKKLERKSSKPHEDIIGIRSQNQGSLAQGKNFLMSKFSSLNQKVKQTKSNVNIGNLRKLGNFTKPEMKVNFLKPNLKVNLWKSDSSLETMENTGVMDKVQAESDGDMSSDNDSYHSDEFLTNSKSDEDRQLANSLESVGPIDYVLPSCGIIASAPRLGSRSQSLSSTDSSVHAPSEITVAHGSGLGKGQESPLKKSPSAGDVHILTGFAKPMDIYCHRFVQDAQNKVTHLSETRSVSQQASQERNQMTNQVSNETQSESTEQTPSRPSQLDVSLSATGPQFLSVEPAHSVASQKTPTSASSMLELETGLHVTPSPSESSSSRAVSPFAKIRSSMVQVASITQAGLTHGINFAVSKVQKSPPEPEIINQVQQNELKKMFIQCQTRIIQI
UniProt P05556, whole entry, looked up: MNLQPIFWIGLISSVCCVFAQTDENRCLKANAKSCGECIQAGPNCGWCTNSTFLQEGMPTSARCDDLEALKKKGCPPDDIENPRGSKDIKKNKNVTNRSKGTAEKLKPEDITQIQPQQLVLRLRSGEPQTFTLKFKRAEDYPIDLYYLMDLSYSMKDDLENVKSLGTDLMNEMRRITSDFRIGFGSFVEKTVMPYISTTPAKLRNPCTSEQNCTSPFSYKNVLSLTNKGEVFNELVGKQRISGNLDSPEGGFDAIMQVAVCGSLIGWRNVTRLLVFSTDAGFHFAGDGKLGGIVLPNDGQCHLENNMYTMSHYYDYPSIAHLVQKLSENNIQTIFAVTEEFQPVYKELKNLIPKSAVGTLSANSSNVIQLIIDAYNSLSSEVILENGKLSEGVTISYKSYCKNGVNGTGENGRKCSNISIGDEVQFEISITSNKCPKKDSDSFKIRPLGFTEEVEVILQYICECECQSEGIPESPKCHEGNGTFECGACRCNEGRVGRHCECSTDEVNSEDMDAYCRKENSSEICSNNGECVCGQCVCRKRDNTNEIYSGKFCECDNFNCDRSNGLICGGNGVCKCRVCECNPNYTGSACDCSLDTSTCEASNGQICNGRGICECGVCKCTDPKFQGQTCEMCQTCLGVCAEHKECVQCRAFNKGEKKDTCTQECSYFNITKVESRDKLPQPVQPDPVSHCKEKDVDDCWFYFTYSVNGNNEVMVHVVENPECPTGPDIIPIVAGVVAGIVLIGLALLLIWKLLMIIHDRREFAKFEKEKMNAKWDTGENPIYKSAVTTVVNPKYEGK
UniProt Q8WZA9: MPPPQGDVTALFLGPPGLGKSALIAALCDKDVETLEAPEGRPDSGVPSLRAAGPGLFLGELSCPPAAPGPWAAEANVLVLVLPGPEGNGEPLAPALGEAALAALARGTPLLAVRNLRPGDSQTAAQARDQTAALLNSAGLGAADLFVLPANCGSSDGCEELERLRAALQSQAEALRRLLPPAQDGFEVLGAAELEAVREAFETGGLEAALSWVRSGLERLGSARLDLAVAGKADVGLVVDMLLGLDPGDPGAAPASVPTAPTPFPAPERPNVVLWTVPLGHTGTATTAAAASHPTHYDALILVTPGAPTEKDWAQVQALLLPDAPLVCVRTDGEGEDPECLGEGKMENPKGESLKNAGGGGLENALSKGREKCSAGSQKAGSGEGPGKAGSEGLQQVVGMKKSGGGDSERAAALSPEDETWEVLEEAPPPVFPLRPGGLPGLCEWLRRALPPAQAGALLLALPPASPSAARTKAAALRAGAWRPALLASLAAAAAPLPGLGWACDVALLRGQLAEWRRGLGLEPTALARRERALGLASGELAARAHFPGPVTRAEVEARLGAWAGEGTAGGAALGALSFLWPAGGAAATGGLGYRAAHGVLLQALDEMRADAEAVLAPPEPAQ

Some of the results follow.

Compound in the experiment: Cc1cc(ccc1-c1ccccc1)C(=O)N1CCCN(CC1)C(=O)CCl [compound 10]
As to the kind of experiment: probe-labelled cysteine peptide fold change vs DMSO (competition) (log2 fold change); higher = less target engagement (more negative = stronger competition). The settings on record: THP-1, incubation time: 4 h.
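Further: competitive profiling in live THP-1 cells: cysteine peptides tagged with an iodoacetamide desthiobiotin (IA-DTB) probe, intensity after compound treatment relative to DMSO-treated cells.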

For the target “ITGB2_P05107_481+483_NCECQTQGR (UniProt P05107)”, the “probe-labelled cysteine peptide fold change” value was -0.124 (10 µM) and -0.52 (50 µM).
In the same order, the values of “INTS14_Q96SY0_464_GVADMLERECTLLPETAHPDAAFQLTHAAQQLK (UniProt Q96SY0)” are 0.0283 and -0.313.
In the case of “ISL2_Q96A47_114_DSVYHIECFR (UniProt Q96A47)”, the “probe-labelled cysteine peptide fold change” value was 0.0851 (10 µM) and 0.0295 (50 µM).
In the same order, the values of “INTS1_Q8N201_867_LGHLLCR (UniProt Q8N201)” are 0.132 and -0.179.
Turning to “ITGAL_P20701_1154_GVPNGIPAEDSEQLASGQEAGDPGCLKPLHEK (UniProt P20701)”, the “probe-labelled cysteine peptide fold change” value by setting is: (10 µM) -0.146; (50 µM) -0.415.
In the same order, the values of “IRF2BP1_Q8IU81_518_LEDTHFVQCPSVPGHK (UniProt Q8IU81)” are 0.00562 and -0.0476.
The like results for “IPO5_O00410_1017_EEAVQTFNYLCDLIESNHPIVLGPNNTNLPK (UniProt O00410)” were, in that order, 0.103 and 0.275.
The like results for “IPO4_Q8TEX9_459_ACYALENFVENLGPK (UniProt Q8TEX9)” were, in that order, 0.15 and -0.135.
For “INTS8_Q75QN2_701_LGQLLAATCK (UniProt Q75QN2)”, the “probe-labelled cysteine peptide fold change” value (10 µM) stood at 0.0476 and the “probe-labelled cysteine peptide fold change” value (50 µM) is 0.113.
The like results for “ITPKB_P27987_873_CHEVIGSSLLFIHDKK (UniProt P27987)” were, in that order, -0.0858 and -0.358.
The like results for “INTS8_Q75QN2_42_KPCPDPAPVQLIVQFLEQASKPSVNEQNQVQPPPDNKR (UniProt Q75QN2)” were, in that order, -0.241 and 0.143.
In the same order, the values of “IRF5_Q13568_272_ALTISNPHGCR (UniProt Q13568)” are 0.15 and 0.0735.
With “IRF2BP2_Q7Z5L9_16+19_QSCYLCDLPR (UniProt Q7Z5L9)”, the “probe-labelled cysteine peptide fold change” value (10 µM) was -0.215 and the “probe-labelled cysteine peptide fold change” value (50 µM) was -0.511.
In the same order, the values of “INTS6_Q9UL03_211_SYSVCSPR (UniProt Q9UL03)” are -0.0696 and -0.133.
In the case of “IPO5_O00410_915_YAEYFLRPMLQYVCDNSPEVR (UniProt O00410)”, the “probe-labelled cysteine peptide fold change” value runs as follows: (10 µM) 0.0323; (50 µM) -0.0774.
In the same order, the values of “INTS9_Q9NV88_471_EVQPLHVVCPEQYTQPPPAQSHR (UniProt Q9NV88)” are -0.0282 and -0.0888.
The like results for “INSR_P06213_899_YGDEELHLCVSR (UniProt P06213)” were, in that order, -0.0624 and 0.262.
The like results for “ITGB2_P05107_472_CDTGYIGK (UniProt P05107)” were, in that order, 0.101 and -0.117.
For “INPP5F_Q9Y2H2_725_NPEEDGKDTLQCIAEMLQITK (UniProt Q9Y2H2)”, the “probe-labelled cysteine peptide fold change” value by setting is: (10 µM) -0.0594; (50 µM) -0.295.
The like results for “IP6K1_Q92551_48_YDDHTVCK (UniProt Q92551)” were, in that order, 0.0811 and 0.0315.
On to “INTS13_Q9NVM9_178_MLEDCVQETIHEHNK (UniProt Q9NVM9)”, for which the “probe-labelled cysteine peptide fold change” value is 0.0728 (10 µM) and -0.081 (50 µM).
“ITGB1_P05556_516_HCECSTDEVNSEDMDAYCR (UniProt P05556)”: the “probe-labelled cysteine peptide fold change” value (10 µM) was -0.0789 and the “probe-labelled cysteine peptide fold change” value (50 µM) is -0.275.
In the same order, the values of “INTS6_Q9UL03_347_KSPQTCWQVYVSNSAK (UniProt Q9UL03)” are 0.118 and -0.0141.
In the same order, the values of “IPO7_O95373_90_NMITQYWPDRETAPGDISPYTIPEEDRHCIR (UniProt O95373)” are -0.111 and -0.187.
The like results for “IPO4_Q8TEX9_95_ETEHCVSLSLAQLSATIFR (UniProt Q8TEX9)” were, in that order, -0.203 and -0.192.
Take “IPO7_O95373_477+484_ACWVLHYFCEVK (UniProt O95373)”: the “probe-labelled cysteine peptide fold change” value reads like this: (10 µM) -0.102; (50 µM) 0.383.
As to “IPO5_O00410_733_VAAAESMPLLLECAR (UniProt O00410)”, the “probe-labelled cysteine peptide fold change” value by setting is: (10 µM) -0.0304; (50 µM) -0.00751.
As for “IRGQ_Q8WZA9_328_DWAQVQALLLPDAPLVCVR (UniProt Q8WZA9)”, the “probe-labelled cysteine peptide fold change” value (10 µM) was -0.00857 and the “probe-labelled cysteine peptide fold change” value (50 µM) is 0.00678.
The like results for “INTS7_Q9NVH2_374_VLTNITVSCQEK (UniProt Q9NVH2)” were, in that order, 0.217 and -0.0134.
For “INTS14_Q96SY0_464_ECTLLPETAHPDAAFQLTHAAQQLK (UniProt Q96SY0)”, the “probe-labelled cysteine peptide fold change” value is -0.0173 (10 µM) and 0.296 (50 µM).
On to “INTS11_Q5TA45_19_SCILVSIAGK (UniProt Q5TA45)”, for which the “probe-labelled cysteine peptide fold change” value was 0.0767 (10 µM) and -0.0856 (50 µM).
In the same order, the values of “IREB2_P48200_467_SDFQACLNEK (UniProt P48200)” are -0.164 and 0.111.
The like results for “IQGAP1_P46940_781_QIPAITCIQSQWR (UniProt P46940)” were, in that order, 0.0882 and 0.251.
In the same order, the values of “INTS14_Q96SY0_171_LYIMCMANLEELQSTDSLECLER (UniProt Q96SY0)” are 0.0485 and 0.0438.
As for “INTS3_Q68E01_80_EANDALNAYVCK (UniProt Q68E01)”, the “probe-labelled cysteine peptide fold change” value by setting is: (10 µM) 0.0623; (50 µM) -0.112.
Consider “INTS4_Q96HW7_109_TAGFSPDCIMDDAINILQNEK (UniProt Q96HW7)”, for which the “probe-labelled cysteine peptide fold change” value reads like this: (10 µM) -0.0858; (50 µM) 0.123.
Turning to “ITGB2_P05107_420_VTATECIQEQSFVIR (UniProt P05107)”, the “probe-labelled cysteine peptide fold change” value runs as follows: (10 µM) -0.062; (50 µM) 0.00506.
In the same order, the values of “ITGAL_P20701_998_IQPSIHDHNIPTLEAVVGVPQPPSEGPITHQWSVQMEPPVPCHYEDLER (UniProt P20701)” are 0.64 and 0.742.
